# Measurements published in PubChem BioAssay AID1347426 (Functional Genomics Laboratory (NCATS/FGL), 2020).
# Out of some 31,000 sequences screened, about 1,400 (4.5%) were called active.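 Rule for the calls: active = median seed-adjusted z-score above 1 or below -1; inactive = the rest.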 The list shows a part of the results.
# Assay: Novel Modifiers of Survival Motor Neuron (SMN) Protein: Gene Identification via Genome-wide siRNA Screen;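 note: luminescence tracks full-length SMN protein made from the SMN2 reporter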
# Settings: HEK293T SMN2-luciferase reporter, siRNA knockdown, 72 h; actives lie on both sides
# Outline: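 Each of three siRNAs per gene is reverse-transfected (1 pmol) into reporter HEK293T cells whose luciferase output tracks SMN protein level. After 72 h culture, ONE-Glo luminescence is control-normalized, log10-transformed and MAD-standardized; Common Seed Analysis deprioritizes seed-driven hits.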
row,Sequence,median seed-adjusted z-score
1,GGACCAAAAUACAUGAGGATT against ELOVL5,inactive: -0.734
2,ACAACUUGGAGUAUCCUUUTT against ZNF480,inactive: -0.164
3,GGCCCUACGAUUAACUGAATT against CCT4,inactive: -0.413
4,CAAAGAACUGCAUAGCGUATT against KLRD1,inactive: 0.876
5,GUCUUUCACAGAAACGAAATT against RAD9B,inactive: 0.0879
6,CCCACCAAAUUGCACAAUATT against KLF13,inactive: -0.501
7,GCAGUGAUCAUAAUUCUCATT against SLC7A1,inactive: 0.445
8,CACCCUUUUUGUCAGAUUATT against SKAP1,inactive: -0.00637
9,GGCAUGUUCUCUGACCUGATT against LINGO2,inactive: 0.123
10,GGUCGGUACUGGAAGUUCATT against SLC5A3,inactive: -0.0305
11,UGAUUUACCUGAGCUGUAATT against GSTT2,inactive: 0.0298
12,AGAUCUCGUGGUUCUGGAATT against RPUSD1,inactive: 0.327
13,GGACUUUGUGAAGUUGUUATT against CRYZL1,inactive: 0.0481
14,CAACUGCUAGCUGAACGAATT against ITIH2,inactive: 0.262
15,AACUACCUUCAACUCCAUATT against FKSG30,inactive: -0.292
16,AGGUCAAGCUGCGCACAGATT against AGAP2,inactive: 0.0934
17,CCUCCAUGCAUACACCAGATT against RDH8,inactive: -0.657
18,CCUAUUCACUUUACACUGUTT against AKR7A2,inactive: 0.192
19,GCAUCGUGAGUGGUACGUUTT against APOL6,inactive: -0.167
20,AACUGAACAUAGCAGAAUUTT against ZNF85,active: -1.01
21,CAUCGCCUAUCCAACCUUATT against SLC5A1,inactive: -0.812
22,GCCGGAAUGCCUUACCAGATT against PKIB,inactive: 0.147

row,Sequence,median seed-adjusted z-score
1,CAGAUUGUCUAGAUCCAGATT against CDC2L5,inactive: 0.314
2,GGUAGAAAAUCGAUACCAATT against ATRN,inactive: -0.28
3,AGUUGUACCUGGAGAAUGATT against PARP10,inactive: -0.454
4,GCCUUAUACCAACCGGUUATT against PKNOX2,inactive: 0.0976
5,GUGCGAUUCUGGAUGACAATT against EVI1,inactive: 0
6,CCAUAAUGCGGGAACGCAATT against CDH19,inactive: -0.409
7,GCAGUUCGUCUUCAGCUUUTT against DUSP4,inactive: -0.176
8,GCAUCGUGAGUGUCAAUUATT against SIM2,inactive: -0.19
9,GCCUAUUAUGGACAACAAUTT against IKZF2,inactive: 0.514
10,AAGUUGAAAAGGAAGCAAATT against SIP1,inactive: -0.443
11,GGCCCUACGUAAUAGGCUATT against BUB1,inactive: 0.566
12,GGAAAUAGCCUUCAACAGATT against GK5,inactive: -0.118
13,GCAAUGGUCUCAUCAAGGUTT against RPS16,inactive: 0
14,CUAUUAGGUUGACCAAUAATT against OSGEPL1,inactive: -0.708
15,ACAAUGUCGCAAUCACAUUTT against MCART1,inactive: -0.605
16,GGAAAGACAUGUAAGAGCATT against BMP8B,inactive: 0
17,CUAAGAUUCUGGUCAAUAUTT against OXSM,inactive: 0.22
18,GCAAAUGGUUGGAAAUUAATT against RBM9,inactive: 0.895
19,CCACAACACCCAACAUGAATT against GATAD2B,inactive: 0.218
20,GCUAUUCAGUCAUAAUCAATT against CXCR6,inactive: 0.71
21,AGAGUGAAUUUAAGGACAUTT against GJB2,inactive: -0.408
22,GCAAAGCCGAUGUCCAGAATT against AARS,inactive: 0

row,Sequence,median seed-adjusted z-score
1,UGGAGUAAAUGAUAAGAUATT against TRIM45,inactive: -0.0974
2,GGUCUAGUACAGGAGAAUATT against GABRA3,inactive: -0.281
3,CGGGAAGAAUCAAAGUCGATT against KRT23,inactive: -0.0696
4,CGAAGACGAUUUCAACAAATT against MAP4K4,inactive: 0.474
5,CAUCAGGAAUGGAAUUACATT against SKIL,inactive: -0.868
6,GCAUGUUGCAGGACCAUAATT against TXNDC11,inactive: 0.642
7,GGCACAUGGUUAACCUGGATT against GPX4,active: -1.18
8,GCUCGAGUCUUACUAAACATT against ZNF682,inactive: -0.155
9,CACUCUUAACGGGACCUUUTT against BDKRB2,inactive: -0.311
10,GCAGGACAGUUCAACCUAATT against RASAL2,inactive: 0
11,GGCCUAUCAUUUAACUCAATT against GPR126,inactive: -0.243
12,GGGUGGUAAAGCUAAAUGATT against AHCYL1,inactive: 0
13,CAUCUGUGACGGGAACUUUTT against MMP14,inactive: -0.0145
14,CAAUGAUGGAAGCACCGAATT against BDP1,inactive: -0.0359
15,CCAGUUUCAUUAUACAUCATT against ZNF211,inactive: -0.173
16,GGAAAACAAGCUCAUCAAUTT against HOXA6,inactive: -0.282
17,CACUUACUGAAGACGAAUATT against AGTR2,inactive: 0.204
18,GCAUCUACGAGUAUGUGGATT against PRPF31,inactive: -0.592
19,GCAUCGACCUGAUUCACAATT against AP3B2,active: -2.45
20,GGGUAGUACCUAAUAAUCATT against RCN2,inactive: -0.112
21,GCAUGAUCUUUAGCCGAGATT against CHSY3,inactive: -0.113
22,CAAGUUCAGUCGUCCCAAATT against MYOZ3,inactive: 0.16

# 2 entries picked at random from the list so far, as already listed:
row,Sequence,median seed-adjusted z-score
8,GCAUCGUGAGUGUCAAUUATT against SIM2,inactive: -0.19
18,GCAAAUGGUUGGAAAUUAATT against RBM9,inactive: 0.895

# (next part)

row,Sequence,median seed-adjusted z-score
1,CAAUGAAUCAGAAACGAAUTT against TCF7L2,inactive: 0.189
2,CCUGCAUCCUCAUGGGUUATT against SLC5A2,inactive: -0.0782
3,GAAUGAGAUAUGGUAUAGATT against F12,inactive: 0.345
4,CCCAUAUGCUUGUGACGGATT against NPAS2,inactive: 0.222
5,GCUUCAUGACAUCCGCAAATT against CTSL3,active: 1.07
6,CCUGUGAGCUAAUCUUUGATT against IVD,inactive: -0.147
7,GCACUUACACCUGCACAAATT against SRPX2,inactive: 0.101
8,CAACAGCUGUGAUCACAGUTT against CDH1,inactive: -0.24
9,GGGAGAUUAUUUGUUUGAATT against SRPK2,inactive: 0.654
10,GCUCUACGGCUCACACUAATT against KIF14,inactive: 0
11,ACUUCAACGUGACCACAGATT against PNPLA6,inactive: 0.309
12,CAAACACUCUGACAGUUAUTT against ZNF592,inactive: 0.0774
13,GGCUUAUGAAGACCAAACATT against AK3,inactive: -0.0313
14,GAUAUUCUCUGUGACGUGATT against BACH2,inactive: 0
15,CGACGGAUCUUUUCGCUGUTT against FBN2,inactive: 0.373
16,AGUAUGGACUGAAAAUGAATT against PA2G4,inactive: -0.803
17,CGAGGAAGUUUAUCUGCGATT against TRPV1,inactive: -0.12
18,GGAUGAACGUGCUAGAACATT against NLRC4,inactive: -0.00107
19,CGGCGUCUCUACUACGUCUTT against CLEC11A,active: -1.1
20,GGACCGAAGUCAAUGGUUUTT against SMC2,inactive: -0.052
21,UCCCUAUGUUCACCACCAATT against TAL1,inactive: -0.165
22,GCACCACGGUCUUCACUCUTT against EDG1,inactive: -0.316

# 2 entries from above in a different format.
row | Sequence | median seed-adjusted z-score
15 | CGACGGAUCUUUUCGCUGUTT against FBN2 | inactive: 0.373
21 | UCCCUAUGUUCACCACCAATT against TAL1 | inactive: -0.165

# In a second layout: results already given
row	Sequence	median seed-adjusted z-score
10	GCAGGACAGUUCAACCUAATT against RASAL2	inactive: 0
6	CCUGUGAGCUAAUCUUUGATT against IVD	inactive: -0.147

# The list goes on:

row,Sequence,median seed-adjusted z-score
1,GAAAGAUCACUGAAUUGCATT against UGT1A10,inactive: 0.286
2,CAAUGAACACUACUAACCATT against IL31RA,inactive: 0.36
3,GCCUUUACUUGGUCCUCAUTT against ZNF595,inactive: 0.102
4,CCGAGGCACCUUUCAAGAATT against SULT4A1,inactive: -0.0628
5,GAUACGGAAUUAUACAGAATT against SLCO5A1,inactive: 0.272
6,GGACUAUGAUUCAACAACATT against CBR4,inactive: -0.66
7,CUUAUGAUCUGGGAUCAGATT against GZMB,inactive: -0.0378
8,GGAUGUGGCGGUUUCCUACTT against SULT1A2,inactive: 0.0541
9,GAGAAUAUCUGGAACCAGUTT against BDKRB1,inactive: 0.448
10,CCUUCACAGGAUCAACAGATT against ALDH1A1,inactive: -0.355
11,GCACUUUGUCAAGAUGAAATT against SHROOM4,inactive: 0.825
12,GCAAUAAUCCUGCUAUGGATT against ACSL4,inactive: -0.0582
13,GAUUUGGUUUCGUAACUUUTT against A2BP1,active: 1.17
14,GGAUUCAACUUUACAAGAATT against BTD,inactive: -0.165
15,CGAGAAUUCUUGACAGACUTT against GABRA2,inactive: -0.272
16,CAUGAAGAACAGUCAAGUATT against RNMT,inactive: -0.281
17,CGGACUAAUUGACUUCGCATT against MED12L,inactive: -0.0903
18,GGUACAACAGUGUCCUGUUTT against MFSD10,inactive: 0.0116
19,GCGUAUAAAUCAUGGUAGATT against ZNF793,inactive: 0.448
20,GAACAUCUCUUGUGGUAUUTT against SLC22A16,inactive: 0.0878
